Paper PMC9018197
Read-outs that look alike come from different tables or passages of the source. These are yes or no findings as the source states them, for the method shown. Binding seen in cells or lysates may run through a third protein. Some results given as binding are weak or reduced against the parent protein; the word gives no strength.

Protein sequences, listed by entry. Tags and fused reporters are not part of them.
UniProt P10415: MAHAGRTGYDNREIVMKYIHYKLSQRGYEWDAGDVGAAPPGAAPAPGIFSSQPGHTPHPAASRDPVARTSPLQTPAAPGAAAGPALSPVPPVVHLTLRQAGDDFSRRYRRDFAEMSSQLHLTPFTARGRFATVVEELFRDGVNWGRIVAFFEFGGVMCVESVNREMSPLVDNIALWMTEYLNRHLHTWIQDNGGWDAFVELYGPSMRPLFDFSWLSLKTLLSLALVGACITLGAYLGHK

Columns and labels:
[1] = biological target: Beclin1 (human (endogenous in HaCaT)) (UniProt Q14457); test: co-IP; HaCaT lysate precipitated with anti-Beclin1 antibody (1:50, overnight, 4°C) and Protein G magnetic beads, washed with PBST, western blot; cells with or without 100 or 200 mM trehalose for 12 or 24 hours, or pretreated with 100 mM trehalose for 24 hours before 50 mJ/cm^2 UVB
[2] = biological target: Beclin1 (human (endogenous in HaCaT)) (UniProt Q14457); test: as above; remark: listed apart in the source

## B-cell lymphoma 2 (Bcl2) (from UniProt P10415 1-239)
[1]
  binding: binds

B1: tissue inhibitor of metalloproteinase (TIMP) 3 (protein, UniProt P35625 24-211)
chain: CTCSPSHPQDAFCNSDIVIRAKVVGKKLVKEGPFGTLVYTIKQMKMYRGFTKMPHVQYIHTEASESLCGLKLEVNKYQYLLTGRVYDGKMYTGLCNFVERWDQLTLSQRKGLNYRYHLGCNCKIKSCYYLPCFVTSKNECLWTDMLSNFGYPGYQSKHYACIRQKGGYCSWYRGWAPPDKSIINATDP
[2]
  binding: binds
